This note sets out measurements from publication PMC7573591 (Nature Communications, 2020).

Protein sequences, listed by entry. Tags and fused reporters are not part of them. Residues count along the entry.
UniProt Q96E22, residues 73-293: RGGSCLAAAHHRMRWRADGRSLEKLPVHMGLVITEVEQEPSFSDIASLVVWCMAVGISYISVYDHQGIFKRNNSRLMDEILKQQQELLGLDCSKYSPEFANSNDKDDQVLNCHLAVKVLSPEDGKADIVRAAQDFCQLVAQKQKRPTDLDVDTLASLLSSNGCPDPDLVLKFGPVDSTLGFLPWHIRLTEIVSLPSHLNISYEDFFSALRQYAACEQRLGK

Results are given in words; binding and its absence hold for the method and conditions named.

The target in the experiment is soluble Nogo-B receptor, cytosolic domain (sNgBR, residues 73-293) (human) (UniProt Q96E22). Kind of experiment: cross-linking; about 8 µM purified shcis-PT with 0.005% glutaraldehyde, room temperature, 15 min; products analysed by SDS-PAGE; both purified.

For the substance “soluble Nogo-B receptor, cytosolic domain (sNgBR, residues 73-293) (from UniProt Q96E22 73-293) (domain or fragment)”, the binding result is given as “no binding (tested: about 8 µM shcis-PT)”.
